Reference: PubChem BioAssay AID310 (DTP/NCI, 2004)
The list does not hold the whole screen: it covers a few groups of compounds. Not every dose and run of a compound is shown. T/C gives the treated animals as a percentage of the vehicle group. Schedules are NCI's codes, taken here to give the interval after Q, in days (D) or hours (H), and the number of doses after X. Some T/C values carry the count of animals alive at the toxicity check; without a count or a note in brackets, all were alive then. Some entries hold several experiments; the results are listed from low to high. Some entries show no survivor count and are marked so; the dose need not have been tolerated. Some entries give survivors of the animals treated and no T/C: the source files T/C as zero there, which appears to mark a toxic dose or a test without result, not a measured value. Counts of survivors are from the toxicity check, whose day is not always given; animals may have died later.

Test system: C3AKF1 mice, osteogenic sarcoma HE10734 s.c., tumor weight T/C
Assay: NCI In Vivo Anticancer Drug Screen. Data for tumor model Osteogenic Sarcoma HE 10734 (subcutaneous) in C3AKF1 (CHKRF1) mice
Details: T/C endpoint: mean tumor weight, schedule: Q01DX010 (ip), higher T/C = larger tumour
Experimental: The antitumor activity of compounds was measured in mice bearing transplantable tumors. Survival or tumor size were measured and the results are expressed as the measurement made in the treated group (T) divided by the measurement made in the vehicle treated control group (C). The tumor model used in this assay is Osteogenic Sarcoma HE 10734 (subcutaneous) in C3AKF1 (CHKRF1) mice

[1] = dose: 5.0 mg/kg/injection, vehicle: saline, evaluated on day 20
[2] = dose: 10.0 mg/kg/injection, vehicle: saline, evaluated on day 20
[3] = dose: 20.0 mg/kg/injection, vehicle: saline
[4] = dose: 20.0 mg/kg/injection, vehicle: saline, evaluated on day 20
[5] = dose: 30.0 mg/kg/injection, vehicle: saline
[6] = dose: 30.0 mg/kg/injection, vehicle: saline, evaluated on day 20

For CCOC(=O)COc1ccc(N(CCCl)CCCl)cc1, the T/C [1] was 74 % of control, the T/C [2] was 17 % of control and the survivor count [3] was 0 of 7. For the same molecule, the survivor count (dose: 40.0 mg/kg/injection, vehicle: saline) was 0 of 7.
For O[C@H](CNCCCl)[C@H](O)CNCCCl, the T/C (dose: 4.5 mg/kg/injection, vehicle: saline, evaluated on day 20) was 77 % of control, the T/C (dose: 9.0 mg/kg/injection, vehicle: saline, evaluated on day 20) was 78 % of control and the T/C (dose: 18.0 mg/kg/injection, vehicle: saline, evaluated on day 20) was 42 % of control. For the same molecule, the survivor count (dose: 36.0 mg/kg/injection, vehicle: saline) was 3 of 6.
In the case of O[C@H](CNCCBr)[C@@H](O)CNCCBr, the T/C (dose: 1.0 mg/kg/injection, vehicle: carboxymethylcellulose (CMC), evaluated on day 20) is reported as 62 % of control, the T/C (dose: 2.0 mg/kg/injection, vehicle: carboxymethylcellulose (CMC), evaluated on day 20) is reported as 87 % of control and the survivor count (dose: 4.0 mg/kg/injection, vehicle: carboxymethylcellulose (CMC)) is reported as 1 of 7. The survivor count (dose: 8.0 mg/kg/injection, vehicle: carboxymethylcellulose (CMC)) was 0 of 7.
In the case of BrCc1cccc(CBr)c1, the T/C (dose: 2.5 mg/kg/injection, vehicle: saline, evaluated on day 20) is reported as 120 % of control, the T/C [1] is reported as 67 % of control and the T/C [2] is reported as 43 % of control. The T/C [4] was 104 % of control [5 of 6 alive], the survivor count [3] was 0 of 6 and the survivor count [5] was 0 of 6. The survivor count (dose: 45.0 mg/kg/injection, vehicle: saline) was 0 of 6 and the survivor count (dose: 70.0 mg/kg/injection, vehicle: saline) was 0 of 6.
In the case of O[C@H](CNCCCl)[C@@H](O)CNCCCl, the T/C (dose: 3.75 mg/kg/injection, vehicle: saline, evaluated on day 20) is reported as 49 and 140 % of control, the T/C (dose: 7.5 mg/kg/injection, vehicle: saline, evaluated on day 20) is reported as 64 and 86 % of control [5 of 6 alive] and the T/C (dose: 15.0 mg/kg/injection, vehicle: saline, evaluated on day 20) is reported as 16 [4 of 6 alive] and 48 % of control. The survivor count (dose: 30.0 mg/kg/injection, vehicle: carboxymethylcellulose (CMC)) was 0 of 6, the T/C [6] was 39 % of control [7 of 8 alive] and the survivor count [5] was 1 of 6. The survivor count (dose: 45.0 mg/kg/injection, vehicle: carboxymethylcellulose (CMC)) was 0 of 6, the survivor count (dose: 65.0 mg/kg/injection, vehicle: carboxymethylcellulose (CMC)) was 0 of 6 and the survivor count (dose: 95.0 mg/kg/injection, vehicle: carboxymethylcellulose (CMC)) was 0 of 6.
For NC(Cc1ccc(N(CCF)CCCl)cc1)C(=O)O (stereo not given), the T/C (dose: 13.0 mg/kg/injection, vehicle: saline, evaluated on day 20) was 75 % of control, the T/C [4] was 79 % of control and the T/C [6] was 80 % of control. The T/C (dose: 45.0 mg/kg/injection, vehicle: saline, evaluated on day 20) was 31 % of control.
With N/C(=N\[N+](=O)[O-])N(CCO[N+](=O)[O-])N=O the T/C (dose: 30.0 mg/kg/injection, vehicle: carboxymethylcellulose (CMC), evaluation day not shown) was 123 % of control [survivor count not shown] and the T/C (dose: 45.0 mg/kg/injection, vehicle: carboxymethylcellulose (CMC), evaluation day not shown) was 122 % of control [survivor count not shown].
